In assay [1] the target is T1, soluble Endoglin (sEng), recombinant, as spiked or purified protein (human) (UniProt P17813).
T1 sequence (looked up): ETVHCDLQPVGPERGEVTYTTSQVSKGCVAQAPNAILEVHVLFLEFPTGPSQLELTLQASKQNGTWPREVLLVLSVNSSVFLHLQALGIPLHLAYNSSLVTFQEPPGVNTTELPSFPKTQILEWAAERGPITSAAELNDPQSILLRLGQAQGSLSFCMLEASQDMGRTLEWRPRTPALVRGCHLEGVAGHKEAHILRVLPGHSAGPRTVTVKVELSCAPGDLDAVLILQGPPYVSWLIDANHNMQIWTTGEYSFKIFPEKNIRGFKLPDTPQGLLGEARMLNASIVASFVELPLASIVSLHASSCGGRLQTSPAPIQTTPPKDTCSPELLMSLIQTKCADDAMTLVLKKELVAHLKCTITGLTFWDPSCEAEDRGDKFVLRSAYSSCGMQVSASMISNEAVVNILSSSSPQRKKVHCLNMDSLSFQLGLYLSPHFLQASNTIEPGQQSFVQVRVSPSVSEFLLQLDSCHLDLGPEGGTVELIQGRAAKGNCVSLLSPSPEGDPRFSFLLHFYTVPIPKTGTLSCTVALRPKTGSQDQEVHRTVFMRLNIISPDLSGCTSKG
Kind of assay: preformed equimolar Bmp9-sEng complex captured through sEng on coated cENG10 and detected with anti-Bmp9 antibody.

Assay [2] has as its target T1, soluble Endoglin (sEng), recombinant, as spiked or purified protein (human). In words: sandwich ELISA: cENG10 coated at 4 ug/mL, preformed equimolar Bmp9/sEng complex against Bmp9 alone, bound Bmp9 detected with biotinylated anti-Bmp9 antibody and an HRP conjugate. For orientation: In an ELISA, binding on a coated surface is turned into a signal by an enzyme label.

Results on one molecule are retold here after US20230030032A1 (AGGAMIN, published 2023).

Results are given in words; binding and its absence hold for the method and conditions named. Some entries that bind do so weakly or less than the wild type.

B1: purified human Bmp9 (ligand, UniProt Q9UK05 320-429, looked up)
chain: SAGAGSHCQKTSLRVNFEDIGWDSWIIAPKEYEAYECKGGCFFPLADDVTPTKHAIVQTLVHLKFPTKVGKACCVPTKLSPISVLYKDDMGVPTLKYHYEGMSVAECGCR
Turning to B1, the binding entry in assay [1] and in assay [2] was “binds” in each case.
